Assay results: US20100159468A1
No constants are given. Whether binding was seen depends on the method and setting. In cells and extracts the contact can be indirect. Some binding calls cover weakened binding; strength is not graded here. Tags and fused reporters may be left off the sequences shown.

By UniProt entry, the sequences of proteins in these tests, tags left out. Residues count along the entry.
UniProt P84077, residues 2-181: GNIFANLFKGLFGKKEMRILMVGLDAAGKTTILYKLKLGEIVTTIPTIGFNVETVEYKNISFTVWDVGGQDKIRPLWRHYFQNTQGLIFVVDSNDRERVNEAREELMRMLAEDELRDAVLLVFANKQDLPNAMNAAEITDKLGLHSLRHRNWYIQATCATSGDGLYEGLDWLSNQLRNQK

Biological target: Arf1-V5 (human) (UniProt P84077)
Experiment: GST pulldown of Arf1-GTP from Vero cell lysates on glutathione agarose, anti-V5 Western blot

B1: recombinant GGA3-GST protein (VHS and GAT domains from human GGA3 in pGEX-6p1) (protein, UniProt Q9NZ52 1-316, looked up, not shown: a dimerising Fc or GST)
chain: MAEAEGESLESWLNKATNPSNRQEDWEYIIGFCDQINKELEGPQIAVRLLAHKIQSPQEWEALQALTVLEACMKNCGRRFHNEVGKFRFLNELIKVVSPKYLGDRVSEKVKTKVIELLYSWTMALPEEAKIKDAYHMLKRQGIVQSDPPIPVDRTLIPSPPPRPKNPVFDDEEKSKLLAKLLKSKNPDDLQEANKLIKSMVKEDEARIQKVTKRLHTLEEVNNNVRLLSEMLLHYSQEDSSDGDRELMKELFDQCENKRRTLFKLASETEDNDNSLGDILQASDNLSRVINSYKTIIEGQVINGEVATLTLPDSEG
In the case of B1, the binding is reported as “binds”.
